Hit rate of the full screen: of about 53,000 sequences, about 3,700 (7%) were called active.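 Rule for the calls: active = gene knockdowns whose robust z-score for IL-1 alpha signal is at least 2 or at most -2, so actives lie on both sides; inactive = the rest.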 This is one part of the list.
experiment: Components of the Cytosolic LPS Sensing Pathway: Gene Identification via Genome-wide siRNA Screen; settings: RAW264.7 macrophages, IL-1a HTRF, actives lie on both sides, screened at 100 nM (by protocol), cells primed 5 h with Pam3CSK4 first;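 note: robust z of the log signal after scaling to non-targeting control siRNA wells of the plate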
In short: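 Three distinct siRNAs per gene were tested singly at 100 nM in RAW264.7 macrophages. Following Pam3CSK4 priming and 24 hour LipidA transfection, IL-1a secretion was read by HTRF.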

z-score, active:
GCAGAAAAACAUCCACGACTT against Spn -2.01
GGAGGAGCGUACUAUUUAATT against Slc12a2 3.34
GGAGAACUCCAGGUUGGCATT against Eaf1 -2.03
GGAGCAGAGAAACUUCUCGTT against Gigyf1 -2.09
CGAUGAACACACGUCUUAUTT against Dtl 2.05
CUUACCACCCUGAGUUUCATT against Olfr1066 -3.2
GGAAUCUGCUGAGGUUUAUTT against Cidea 4.08
GGAACUGAUGAUGGACCAGTT against Slc4a1 3.39

z-score, inactive:
GGGUCAGUUUUUACAUUUUTT against Cxcl14 0.882
GAUGGCUUGUGAAAUACCATT against Hat1 1.58
GGAUGUAGACUUUAUCAAUTT against Glipr1l2 1.23
GGUUUUUCUUCUGCUGGUGTT against Olfr1256 1.64
GGAUCGUAGAACACCCUUCTT against Robo2 -0.00164
CGAUAUCUCGAAAAUUUCATT against C1galt1c1 0.955
GGAAAACGGAAAAGACAUCTT against Calr3 0.584
CCCGAAGUCCUGUUUUGCATT against Olig3 0.839
GGAUGCUGGUUCUUUUGGUTT against Gdpd4 -0.213
CGAGUACAGUGGUUUGUCATT against Orc1 0.858
GGCAAACAUCUGUAUCUAUTT against Golph3 -0.571
GGGCACCAUCAACAUGAACTT against Mprip 0.435
GCCAACAUGUGUUUGUGUGTT against Krtap9-1 0.821
GGUACCUCUGUAUUCAGCCTT against Olfr121 0.78
GGAGUGAAAUUUCUGUAAUTT against Olfr796 0.256
CCUUUUGAUAGAGAAGAGCTT against Olfr1426 0.131
GCAAAACUCAUUGAAAGUGTT against Pramel13 -0.619
GCUUAGUUUAUGAGAAUGCTT against Ptprh -0.791
GGAAAGAAAUAGUUAAGGGTT against Zfp239 0.455
CGGGAAGAGUAUCACUUACTT against Elac2 -1.42
CCGACUCUUGGUGCCAUACTT against Hadh 1.28
GCUGUUUCCCAGAGAAGAATT against Defb2 -0.814
GGUGGUGUUUCAUAAGAUGTT against Rragc -0.0381
GGAAGUUGGAGAAGCAAAATT against Hepacam 0.805
GGACACACAGUAUUGUUUGTT against Lypd6b 0.101
GGUCAUUCUCCAAGAACUATT against Ugp2 -0.844
GCUUUAACCUGGUUUAGUATT against Magix -0.145
GCAAUAGGCCUCUUAAUUATT against Sirt1 0.344
GGUACAACAAAAAUGUGACTT against Vmn1r73 -1.39
GGAAUUCAUACAGGAACUUTT against Mst1r 0.0208
CGAAAACGUACAAGAUGAATT against Nap1l4 -0.194
GAUUCUUGUCGCUCAUAGCTT against Vmn1r52 -0.535
GGUUCUUACCAAGAUGAAGTT against Ccdc159 0.969
GCUAAGGACUUUUGUUGACTT against G3bp1 1.2
CCACAUACUCUAAUGAAGUTT against Casp1 0.176
GCUUCAUAUUGCUAGGAAATT against Chrd -1.11
GGUGUCAGAGGUAUUUUCATT against Bik -0.0455
GGAUUCGAGCAGUUAGUGATT against Ikbkg -1.16
GGUGACAUAUUUGAAGUGGTT against Dmwd -0.000303
GCGUAUUGGGCAGAUCAAATT against Slit1 1.36
CCUUAUACGAAUGCCAUUCTT against Eed -0.266
CCGUCAAUCUUUAUACCACTT against Frzb -0.262
GGAAGGAUGAUUUUCAGAUTT against Mcf2 0.952
GGAGGUUUUUUUGUUUUGUTT against Serpinb13 -0.614
CGUAAGAUCAACGAGAGAUTT against Ncaph2 -0.756
GGCUAUGGCAAGCUAAGCATT against Pex5l -0.505
GGACAUGACCUUAUUUGGATT against F2rl3 -1.19
GCUUGUCUACUAUUUCACATT against Catsperg2 0.575
CGAGGCUGAAAGAUUGUAUTT against Rwdd2b -0.126
GCAACUAUACUGGACAAUUTT against Olfr328 -1.19
GUUCGUGCGGGACAUGAUCTT against Rpl36 -0.481
GGCGAGCUUAUCCAUGAUUTT against Eif3m 0.637
GCAAGACAAGUUCUACGAUTT against Csad 1.83
CCUUUUAAGUUCCUCCCACTT against Pdxp 1.52
GGACUACAGGUAUCGUGAUTT against Actbl2 -0.138
GGAGAAAACUCAUGGCCCUTT against Prkag3 0.0696
GCACUUACCUAACACUAUCTT against Sva 0.704
CGAGAAGGAUAUAAUUGUUTT against Klhl18 0.449
GGACGUGAAGUGAAGUCAUTT against 1810009N02Rik -0.626
CCUCAGGUGUGUUUACAACTT against A230083G16Rik 1.94
GGUCCACUUAGUGGCUUAATT against Atp5pb -0.227
GGCUUUUGAGCUGGUCUUCTT against Ntn3 -1.2
GCUCCUCACUUAUUGCCCATT against Zfp354b -0.0805
GCCUGCUUUGGAAAAAUCATT against Akr1c12 0.209
GAAGAGAAUGGAGAGAGAGTT against Vpreb2 -0.578
GAGUGUGGAAGGAAGAGGUTT against Orai1 1.82
GGAAAGCAGACUUCUAAAGTT against Pdgfc 0.13
UGUCAACUGACUGUAGUAATT against Zmynd12 1.66
GGUACAGGCAAUUAAACUUTT against Pds5a 1.24
GGACUGUUGUAUUUGUGUGTT against Bmper -1.14
CCACAAUUACCCAGUAUGATT against Olfr498 -0.939
GCAUGCGCAUGUCAUUGAATT against Zdhhc1 1.71
GGUGAAGCUGAAACAACAUTT against Mios 0.909
GGCUGCAAGCAAAAAUAGATT against 1700029J07Rik -0.739
GUUCUGAAAAUAGAAUAAUTT against Vmn1r16 0.237
GCUUCACUUCUACCCUAGATT against Il18bp -0.0537
GCGAAUGAUUGCUUUCAAUTT against Inhbb -0.714
GGCUUUUUUCUGUCCCAAUTT against Clcn6 -1.03
GCAUCCACACGGUUAAUCUTT against Tmeff2 0.508
GGUUGCUGUUUUGAUGACATT against Tff1 -0.328
GGAGGUGAAGUAUUUAGGUTT against Ccm2 -0.219
CGACACUAGUGAUCACUCUTT against Tmem125 -1.98
GGUAAACUUGACAAUAGGATT against Zc3h14 -0.512
CGCUCACUGGUUUUUAAUUTT against Itpripl2 0.694
GCAUGCAUGCUAUUGUUUUTT against 4931431C16Rik 0.336
CCACCUUAACUGUUGCUUUTT against Mmp2 0.691
GGAGGAAAUGAUGAUUUUCTT against Kbtbd2 0.283
GGAUAAAUGUGCAUCUUAGTT against Aasdhppt 0.126
CCAGAGUUUUAUAACGGAATT against Olfr1229 0.601
GCAUCUAGUGACUGUCAAUTT against Sbp 0.418
CCUCCACUUGCCAUAUUGUTT against Inava -1.51
GCAAUUACCUGGUUUAAUGTT against Jmjd6 1.34
GCUACUACACGCAAGAUUUTT against Tex13b -0.901
GGUAUCAGUGAGUGGUACGTT against Tsen15 -0.56
CGCGCAGUGAAUAGCCUUCTT against Vipas39 -1.05
GGGUUUUUCAAGAUAAACCTT against Nudt2 -1.24
GGUGAGGUUAUUUCAAUACTT against 0610010F05Rik -0.618
CCAUUGCUAUCAACACUAATT against Alox5 -0.00402

Quoted at random: 5 records from the list
z-score, inactive:
GGCAAACAUCUGUAUCUAUTT against Golph3 -0.571
GGUUUUUCUUCUGCUGGUGTT against Olfr1256 1.64
GCAAUAGGCCUCUUAAUUATT against Sirt1 0.344
GCAUGCGCAUGUCAUUGAATT against Zdhhc1 1.71
GGCUUUUGAGCUGGUCUUCTT against Ntn3 -1.2

— PubChem BioAssay AID1508600 (Functional Genomics Laboratory (NCATS/FGL), 2020)
